Measurements from paper PMC5481773, “Structural insights into the function of ZRANB3 in replication stress response” (Nature Communications, 2017).
Positions count from the first letter of the chain named. Construct, isoform or probe ends are uncertain for at least one entry. A weaker result is weaker than the reference pair of the same experiment. At least one verdict was read from the data and is not stated in words by the source. Protein sequences can lack the tags named with them.

What was measured:
[1] = molecular target: T1, ZRANB3 HNH domain R1009A (human) (UniProt Q5FWF4); assay: EMSA; details: 4 mM EDTA, 4-32 uM protein, EMSA: 50 mM Tris-HCl pH 7.5, 5% glycerol, 1 mM DTT, 0.1 mg/ml BSA, 1 nM DNA, 4 C, 30 min, 5% native PAGE in 0.5x TBE, recombinant protein, residues 871-1079, protein details: N-terminal His6-Trx (pNH-TrxT), label: 5' 32P on strand 1 (S7)
T1 sequence (looked up): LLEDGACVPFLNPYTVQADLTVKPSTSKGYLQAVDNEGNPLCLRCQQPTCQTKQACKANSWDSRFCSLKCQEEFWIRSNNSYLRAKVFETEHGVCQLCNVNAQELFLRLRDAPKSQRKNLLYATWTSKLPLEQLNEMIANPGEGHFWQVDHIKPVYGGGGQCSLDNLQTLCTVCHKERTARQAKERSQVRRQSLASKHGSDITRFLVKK

[2] = molecular target: T2, ZRANB3 HNH domain K1046A,R1048A (human) (UniProt Q5FWF4); assay: EMSA; details: 4 mM EDTA, 4-32 uM protein, EMSA: 50 mM Tris-HCl pH 7.5, 5% glycerol, 1 mM DTT, 0.1 mg/ml BSA, 1 nM DNA, 4 C, 30 min, 5% native PAGE in 0.5x TBE, recombinant protein, residues 871-1079, protein details: N-terminal His6-Trx (pNH-TrxT), label: 5' 32P on strand 1 (S7)
T2 sequence (looked up): T1 sequence (looked up) with A139R, K176A, R178A

Question: Does “CCTCGATCCTACCAACCAGATGACGCGCTGCTACGTGCTACCGGAAGTCG / CGACTTCCGGTAGCACGTAGCAGCGGCTCGCCACGAACTGCACTCTAGGC [EMSA splayed duplex]” bind [1]?
Answer: binds more weakly

Question: Does “CCTCGATCCTACCAACCAGATGACGCGCTGCTACGTGCTACCGGAAGTCG / CGACTTCCGGTAGCACGTAGCAGCGGCTCGCCACGAACTGCACTCTAGGC [EMSA splayed duplex]” bind [2]?
Answer: binds more weakly
